These results are taken from article PMC6440935, “Characterization and phase I study of CLR457, an orally bioavailable pan-class I PI3-kinase inhibitor” (Investigational New Drugs, 2018).

In the data set the test system is advanced solid tumors with PI3K pathway activation. The data set is described as follows: First-in-human phase I study: efficacy (RECIST v1.1). The data set is classed as in vivo. The protocol:
Efficacy assessments including overall response rate (ORR) and disease control rate (DCR) were analyzed as per RECIST v1.1 by local investigator interpretation based on interval imaging every 2 cycles.

In the case of `C[C@H]1OC(=O)N(c2cc(-c3cnc(N)nc3C(F)(F)F)nc(N3CCOCC3)n2)[C@H]1CO` [CLR457], the “Best overall response: Not evaluable” value reads like this: (5 mg, N = 2) 0 n (%); (10 mg, N = 3) 0 n (%); (20 mg, N = 4) 0 n (%); (40 mg, N = 5) 0 n (%); (70 mg, N = 6) 1 (16.7) n (%); (100mg, N = 11) 3 (27.3) n (%). Moreover, the “Best overall response: Not evaluable” value (All Patients, N = 31) is on record as 4 (12.9) n (%).
